Reference: PubChem BioAssay (NCATS)
What follows is the remainder of the data, with few or none of the hits. Inconclusive results are not listed. Activity calls are given as the source filed them. Unless noted, calls follow the shape of the dose curve; as a rule, active = well fitted curve in the direction sought with a large enough effect; inconclusive = small, poorly fitted or top-dose-only effect, or another doubt; inactive = no such curve, though single readings can be large; an effect the other way counts as inactive or inconclusive.

Chains of the proteins cited; added tags and fusions are not shown.
UniProt P04637, whole entry, looked up: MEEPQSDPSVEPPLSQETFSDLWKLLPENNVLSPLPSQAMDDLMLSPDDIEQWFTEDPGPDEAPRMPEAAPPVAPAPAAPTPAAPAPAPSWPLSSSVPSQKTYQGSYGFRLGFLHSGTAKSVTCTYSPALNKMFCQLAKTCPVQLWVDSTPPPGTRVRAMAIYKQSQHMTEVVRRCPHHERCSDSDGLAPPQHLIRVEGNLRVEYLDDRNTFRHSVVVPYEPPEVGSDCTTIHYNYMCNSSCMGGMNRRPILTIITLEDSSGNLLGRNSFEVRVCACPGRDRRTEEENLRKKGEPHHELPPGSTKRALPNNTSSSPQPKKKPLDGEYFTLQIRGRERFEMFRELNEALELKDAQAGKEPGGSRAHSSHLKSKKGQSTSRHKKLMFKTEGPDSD

Columns and labels:
[1] = biological target: Cellular tumor antigen p53 (Homo sapiens) (UniProt P04637); experiment: Primary qHTS for small molecule compounds that upregulate eGFP-tagged delta133p53alpha (in N-terminal) cells. (AID 2060322); details: NCI-H358 eGFP-delta133p53alpha fluorescence, 24 h; active compounds read high;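 also: cells pre-induced with doxycycline then dosed without doxycycline; 0% = DMSO vehicle and 100% = reference activator; nearly all actives have a fitted effect of over 75% in size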
Source text: Assay Development and Screening Technology
National Center for Advancing Translational Sciences (NCATS),
National Institute of Health (NIH), Rockville, Maryland
Cellular senescence (CS) is one of the hallmarks of aging and age-related diseases. Senescent cells are characterized by an irreversible growth arrest, an increase in senescence-associated beta-galactosidase (SA-beta-gal) activity and p16INK4a expression, an activation of the DNA damage response pathways, and the emergence of a senescence-associated secretory phenotype (SASP).
Delta133p53alpha, a human/primate-specific p53 protein isoform, delays or inhibits the induction of CS and SASP in various types of human cells, including progeria-derived fibroblasts, primary normal astrocytes, and CD8+ T lymphocytes. Induction of delta133p53alpha with small molecule compounds may provide therapeutic opportunities for inhibition of senescence/SASP-associated pathologies in progeria syndromes, astrocyte-mediated neuroprotection in neurodegenerative diseases, and possibly prevention and treatment of a wider range of senescence- and aging-associated diseases.
Here we report the development and validation of a cell-based quantitative high throughput screening (qHTS) assay in 1,536-well format. This qHTS assay uses the NCI-H358 cell line with doxycycline-inducible expression of enhanced green fluorescent protein (eGFP)-tagged delta133p53alpha, which allows efficient and highly quantitative measurement of the protein levels.
PROTOCOL TABLE (as described by Inglese J, Shamu CE and Guy RK. 2007)
SEQUENCE No. (e.g., 1, 2, 3, etc.); […] (e.g., Cells, Incubation, Reagent, etc.); VALUE; DESCRIPTION.
1; Cells; 4uL; 800 doxycycline treated cells / well in doxycycline-free media, 1536-well black, clear-bottom low base Aurora microplates.
2; Compounds; 23 nL; Kalypsis pin tool (Wako) equipped with 1536-well pin heads, 5-azacytidine positive control.
3; Incubation; 24 hr; 37C, 5% CO2; 95% relative humidity.
4; Aspiration; 1x; BioTek EL406 washer dispenser (Agilent).
5; Fixing; 3.5% paraformaldehyde, BioTek EL406 washer dispenser (Agilent).
6; Washing; 1x PBS; BioTek EL406 washer dispenser (Agilent).
7; Nuclei staining; 1:1000 dilution of Hoechst 33342 (Thermofisher), BioTek EL406 washer dispenser (Agilent).
8; Incubation; 20 min; in the dark at room temperature.
9; Washing; 2x, 1x PBS (ThermoFisher), BioTek EL406 washer dispenser (Agilent).
10; Reagent; 10 uL; 1x PBS per well, sealed with clear adhesive tape.
NOTES (numbers refer to sequence numbers above).
1. NCI-H358 cells expressing eGFP-tagged delta133p53alpha were grown in T75 culture flasks and treated with doxycycline for 24h, at 10 ng/ml for eGFP-D133p53a cells (N-terminal cell) and 100 ng/ml for D133p53a-eGFP cells (C-terminal cells). Cells were trypsinized, counted using a Counted 3 Automated Cell Counter (Thermo Fisher), and diluted to a concentration of 200,000 cells/ml. A Multidrop Combi Reagent Dispenser (ThermoFisher) was used to dispense 800 cells/well in […] of doxycycline-free media, into 1536-well black/clear bottom low base plates (AuroraMicroplates).
2. After plating cells, 23 nl of compound library, DMSO vehicle control or positive control (5-azacytidine) were transferred by Pin Tool (Wako). The plate map layout was the same for each plate: (column 1) non-doxycycline treated cells + DMSO vehicle control; (column 2) doxycycline treated cells + DMSO vehicle control baseline; (column 3) doxycycline treated cells + positive control 57.5 uM final concentration 5-azacytidine; (column 4) doxycycline treated cells + serial dilution of 5-azacytidine, 16-point 1:2 titration spanning 1.8 nM to […] final concentration; (columns 5-48) doxycycline treated cells + titration of library compounds.
3. Cells were incubated at 37 °C, 5 % CO2, 95% RH with breathable metal lid for 24h.
4-10. […] After two washes, 10 ul of 1X PBS (Thermo Fisher) was dispensed to each well. Clear adhesive plate seals (VWR) were applied and plates stored at 4 °C.
11. […]

[2] = biological target: Aldehyde dehydrogenase, mitochondrial (Homo sapiens) (UniProt P05091); experiment: qHTS for Inhibitors of the Aldehyde Dehydrogenase Family (ALDH2) Primary screen (AID 2061308); details: ALDH2 enzyme inhibition qHTS, 1536-well; at 56 µM (top of the series);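 also: plate controls were vehicle for no effect and reference inhibitor for full effect; nearly all actives have a fitted effect of over 55% in size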
[3] = biological target: Retinaldehyde dehydrogenase 3 (Homo sapiens) (UniProt P47895); experiment: qHTS for Inhibitors of the Aldehyde Dehydrogenase Family (ALDH1A3) Validation screen (AID 2061312); details: ALDH1A3 enzyme inhibition qHTS validation, fluorescence; at 84.7 µM (top of the series); also: % is scaled to controls: 0 for no effect and ±100 for the full control effect; nearly all actives have a fitted effect of over 45% in size
[4] = biological target: Retinaldehyde dehydrogenase 3 (Homo sapiens) (UniProt P47895); experiment: qHTS for Inhibitors of the Aldehyde Dehydrogenase Family (ALDH1A3) Primary screen (AID 2061315); details: ALDH inhibition qHTS; at 56 µM (top of the series);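 also: plate controls were DMSO vehicle for no effect and reference inhibitor for full effect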
[5] = biological target: Aldehyde dehydrogenase, mitochondrial (Homo sapiens) (UniProt P05091); experiment: qHTS for Inhibitors of the Aldehyde Dehydrogenase Family (ALDH2) Confirmatory screens (AID 2061303; active = well fitted inhibition curve with a large enough effect; title and protocol of this record describe different tests; also: % is scaled to controls: 0 for no effect and ±100 for the full control effect; nearly all actives have a fitted effect of over 45% in size); details: ALDH inhibition qHTS; at 45.4 µM (top of the series)
[6] = qHTS for Inhibitors of the Aldehyde Dehydrogenase Family (ALDH1A2, ALDH1A3, ALDH2, ALDH3A1) (AID 2061307); details: ALDH inhibition qHTS; at 50.3 µM (top of the series); also: % is scaled to controls: 0 for no effect and ±100 for the full control effect; nearly all actives have a fitted effect of over 50% in size

COc1ccc(-c2c(C)c(C(=O)NN3CCCCC3)nn2-c2ccc(Cl)cc2Cl)cc1
inactive: activation [1] 23.9% | activity change, negative = inhibition [2] -7.64% | activity change, negative = inhibition [3] -23.5% | activity change, negative = inhibition [4] -6.38%

Nc1ccc(N)c([N+](=O)[O-])c1
inactive: activation [1] 23.4%

O=C(Nc1cccc(C(F)(F)F)c1)c1ccccc1NCc1ccncc1
inactive: activation [1] 27.7% | activity change, negative = inhibition [2] 1.57% | activity change, negative = inhibition [4] -2.55%

N#Cc1ccc2c(c1)CCN(CCC1CCC(NC(=O)c3ccnc4ccccc34)CC1)C2 (stereo not given)
inactive: activation [1] -9.55% | activity change, negative = inhibition [5] -11% | activity change, negative = inhibition [6] -12.5% | activity change, negative = inhibition [2] -9.64% | activity change, negative = inhibition [4] -22.3%

CN([C@H]1c2cc(OCCCC(F)(F)F)ccc2OC(C)(C)[C@@H]1O)S(C)(=O)=O
inactive: activation [1] 4.3% | activity change, negative = inhibition [2] 2.08% | activity change, negative = inhibition [3] -23.3% | activity change, negative = inhibition [4] -13.9%

N#Cc1ccc(-c2ccc(NC(=O)Nc3ccc(-c4ccnc5nc[nH]c45)cc3)cc2)cc1
inactive: activation [1] 6.25% | activity change, negative = inhibition [2] -22.9% | activity change, negative = inhibition [4] 15.3%
